# Data reported in patent US20160002291A1, “Active Agent Prodrugs with Heterocyclic Linkers” (Signature Therapeutics, Inc., priority 2011, published 2016).
# The name of at least one read-out is uncertain.
# Target: T1, trypsin (Bos taurus, UniProt P00760)
# T1 sequence (P00760 24-246): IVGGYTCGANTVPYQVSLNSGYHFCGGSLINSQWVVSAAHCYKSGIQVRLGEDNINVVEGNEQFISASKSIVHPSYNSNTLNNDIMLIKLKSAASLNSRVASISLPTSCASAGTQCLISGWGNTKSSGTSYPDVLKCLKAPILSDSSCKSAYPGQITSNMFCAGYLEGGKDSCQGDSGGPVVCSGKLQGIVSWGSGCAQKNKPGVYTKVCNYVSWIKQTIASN
# Assay: In vitro trypsin-mediated cleavage of hydrocodone prodrugs (Example 44)
# Conditions: adjusted to 4815 BAEE U trypsin/mL; conditions as Example 39
structure (smiles),measurement,value
"COc1ccc2c3c1O[C@H]1C(OC(=O)N4CC(C(=O)O)CCC4CNC(=O)[C@H](CCCNC(=N)N)NC(=O)CNC(C)=O)=CC[C@H]4[C@@H](C2)N(C)CC[C@]314 (stereo partly drawn) [Compound KC-32, N-(hydrocodone-6-enol-carbonyl)-[(2-methylamino)piperidine-3-carboxylate]-L-arginine-glycine-acetate]",Prodrug trypsin half-life,9 ± 0 min
